Experimental data as given in PMC6155247.
No constants are given. Whether binding was seen depends on the method and setting. Binding seen in cells or lysates may run through a third protein. Some binding calls cover weakened binding; strength is not graded here. For some of these results: Tags and fused reporters may be left off the sequences shown.

The chains behind the UniProt entries cited, without tags or fusion partners.
UniProt P04406: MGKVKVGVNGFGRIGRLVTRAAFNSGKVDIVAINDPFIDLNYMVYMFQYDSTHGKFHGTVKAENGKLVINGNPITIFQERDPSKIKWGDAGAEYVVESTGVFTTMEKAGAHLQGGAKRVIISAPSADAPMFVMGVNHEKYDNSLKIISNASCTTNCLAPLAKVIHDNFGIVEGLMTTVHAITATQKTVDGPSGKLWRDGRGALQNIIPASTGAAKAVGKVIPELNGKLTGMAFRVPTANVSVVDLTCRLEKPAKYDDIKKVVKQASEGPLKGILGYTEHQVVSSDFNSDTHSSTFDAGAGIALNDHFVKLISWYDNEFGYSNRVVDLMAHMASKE
UniProt P14618: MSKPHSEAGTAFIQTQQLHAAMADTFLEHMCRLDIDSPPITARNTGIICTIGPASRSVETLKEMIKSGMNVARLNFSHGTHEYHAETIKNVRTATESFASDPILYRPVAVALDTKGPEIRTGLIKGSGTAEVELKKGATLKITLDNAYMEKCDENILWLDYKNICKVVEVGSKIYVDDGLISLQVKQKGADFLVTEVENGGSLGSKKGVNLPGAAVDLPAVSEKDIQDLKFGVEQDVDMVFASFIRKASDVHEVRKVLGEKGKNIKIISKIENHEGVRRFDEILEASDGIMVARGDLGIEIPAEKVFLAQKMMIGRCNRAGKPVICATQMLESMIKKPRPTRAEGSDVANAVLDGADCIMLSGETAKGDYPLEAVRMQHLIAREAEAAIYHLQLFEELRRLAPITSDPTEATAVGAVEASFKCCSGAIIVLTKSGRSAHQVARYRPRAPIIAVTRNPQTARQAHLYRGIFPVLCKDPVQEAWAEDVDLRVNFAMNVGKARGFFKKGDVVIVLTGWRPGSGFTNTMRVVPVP

Key:
[1] = molecular target: T1, voltage-dependent anion channel 2 (human (endogenous in GBM1-NSTCs)) (UniProt P45880); assay: co-IP; lysate of GBM1-NSTCs, endogenous proteins; anti-VDAC2, anti-PFKP or control IgG immobilised on AminoLink Plus coupling resin (Pierce Co-IP Kit), incubated with cell lysate overnight, eluates analysed by western blot; reciprocal precipitations for VDAC2 and PFKP
T1 sequence: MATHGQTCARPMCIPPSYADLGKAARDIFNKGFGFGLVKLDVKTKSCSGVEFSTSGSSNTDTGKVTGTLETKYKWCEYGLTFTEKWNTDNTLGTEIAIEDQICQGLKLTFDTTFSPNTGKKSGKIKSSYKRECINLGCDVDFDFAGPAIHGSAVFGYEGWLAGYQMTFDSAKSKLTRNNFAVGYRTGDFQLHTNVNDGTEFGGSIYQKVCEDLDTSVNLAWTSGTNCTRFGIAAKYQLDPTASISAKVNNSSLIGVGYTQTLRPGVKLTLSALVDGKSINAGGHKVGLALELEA

[2] = molecular target: T2, overexpressed VDAC2 (UniProt P45880); assay: co-IP; lysate of GBM2-GSCs overexpressing VDAC2; anti-VDAC2 or anti-PFKP immobilised on AminoLink Plus coupling resin (Pierce Co-IP Kit), incubated with cell lysate overnight, eluates analysed by western blot; reciprocal precipitations
T2 sequence: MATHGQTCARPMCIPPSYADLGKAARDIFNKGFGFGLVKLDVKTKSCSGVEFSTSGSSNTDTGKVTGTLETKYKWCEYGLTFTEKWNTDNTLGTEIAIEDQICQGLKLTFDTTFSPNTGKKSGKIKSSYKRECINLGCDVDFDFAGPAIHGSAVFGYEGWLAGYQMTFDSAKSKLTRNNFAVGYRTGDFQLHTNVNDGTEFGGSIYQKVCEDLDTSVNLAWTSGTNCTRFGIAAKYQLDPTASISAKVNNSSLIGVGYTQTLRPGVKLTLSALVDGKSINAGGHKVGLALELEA

GAPDH (from UniProt P04406 1-335) (enzyme)
binding [1]: no binding

PKM2 (from UniProt P14618 1-531) (enzyme)
binding [1]: no binding

B1: platelet-type of phosphofructokinase (enzyme, UniProt Q01813 1-784)
chain: MDADDSRAPKGSLRKFLEHLSGAGKAIGVLTSGGDAQGMNAAVRAVVRMGIYVGAKVYFIYEGYQGMVDGGSNIAEADWESVSSILQVGGTIIGSARCQAFRTREGRLKAACNLLQRGITNLCVIGGDGSLTGANLFRKEWSGLLEELARNGQIDKEAVQKYAYLNVVGMVGSIDNDFCGTDMTIGTDSALHRIIEVVDAIMTTAQSHQRTFVLEVMGRHCGYLALVSALACGADWVFLPESPPEEGWEEQMCVKLSENRARKKRLNIIIVAEGAIDTQNKPITSEKIKELVVTQLGYDTRVTILGHVQRGGTPSAFDRILASRMGVEAVIALLEATPDTPACVVSLNGNHAVRLPLMECVQMTQDVQKAMDERRFQDAVRLRGRSFAGNLNTYKRLAIKLPDDQIPKTNCNVAVINVGAPAAGMNAAVRSAVRVGIADGHRMLAIYDGFDGFAKGQIKEIGWTDVGGWTGQGGSILGTKRVLPGKYLEEIATQMRTHSINALLIIGGFEAYLGLLELSAAREKHEEFCVPMVMVPATVSNNVPGSDFSIGADTALNTITDTCDRIKQSASGTKRRVFIIETMGGYCGYLANMGGLAAGADAAYIFEEPFDIRDLQSNVEHLTEKMKTTIQRGLVLRNESCSENYTTDFIYQLYSEEGKGVFDCRKNVLGHMQQGGAPSPFDRNFGTKISARAMEWITAKLKEARGRGKKFTTDDSICVLGISKRNVIFQPVAELKKQTDFEHRIPKEQWWLKLRPLMKILAKYKASYDVSDSGQLEHVQPWSV
binding [2]: binds
binding [1]: binds
